Experimental data: patent publication US8592581B2, “Trisubstituted purine derivatives” (Cyclacel Limited, priority 2007, dated 2013)

Test system: H460 non-small cell lung cancer (NSCLC) cell line
Test: Alamar blue cytotoxicity assay in H460 NSCLC tumour cell line
Type: cell-based
Details: Homo sapiens, NCI-H460; H460 cells, 72 hours, average of three independent experiments
Procedure: In order to determine the cellular potency of the compounds, the cytotoxicity of each compound was determined against the H460 non-small cell lung cancer (NSCLC) cell line. Standard cytotoxicity methods were performed as follows: H460 cells were seeded in 96-well plates appropriately for their doubling time (3000 cells per well) in RPMI media containing 10% FCS and incubated overnight at 37° C., 5% CO2. The media was removed and 100 μl fresh media containing increasing concentrations of appropriate compound was added and the cells incubated for 72 hours at 37° C., 5% CO2. A 10% stock of alamar blue (Roche, Lewes, United Kingdom) was prepared in medium and 100 μl added to the cells which were incubated for 2 hours. Absorbance was measured on the Wallac Victor 2 1420 multi-label counter at 544-595 nm.

Q: `CC[C@H](CO)Nc1nc(NCc2ccccc2)c2ncn(C(C)C)c2n1` [Seliciclib, seliciclib, reference compound] was tested. Which IC50 did it give?
A: 12 µM
